Experimental data taken from the supplement of paper PMC8728848.
The list shows a part of the results.

Key:
Assay in all cases: glycan array binding signal (z-score within array); higher = stronger binding
Settings in all cases: glycan notation: IUPAC condensed, linker removed
[1] = molecular target: Neu5Ac(a2-3)Gal(b1-4)GlcNAc(b1-3)[Neu5Ac(a2-3)Gal(b1-4)GlcNAc(b1-6)]GalNAc
Procedure, shortened: (§1)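 Glycan array data came from 3228 arrays in the Consortium for Functional Glycomics database, and only arrays with an available protein sequence were kept. Glycan names were put into IUPAC-condensed notation, and columns mapping to the same glycan were averaged. The binding signal is a within-array Z-score, averaged across arrays of one protein sequence run at different concentrations or buffers and across linkers. A negative Z-score can be read as non-binding.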

[2] = molecular target: Neu5Ac(a2-3)Gal(b1-4)GlcNAc(b1-6)GalNAc
Procedure, shortened: as §1

[3] = molecular target: Neu5Ac(a2-3)Gal(b1-4)GlcNAc(b1-6)[Gal(b1-3)]GalNAc
Procedure, shortened: as §1

[4] = molecular target: Neu5Ac(a2-3)Gal(b1-4)GlcNAc(b1-6)[Neu5Ac(a2-3)Gal(b1-3)]GalNAc
Procedure, shortened: as §1

[5] = molecular target: Neu5Ac(a2-3)Gal(b1-4)GlcNAc6S
Procedure, shortened: as §1

[6] = molecular target: Neu5Ac(a2-3)Gal(b1-4)[Fuc(a1-3)]GlcNAc
Procedure, shortened: as §1

[7] = molecular target: Neu5Ac(a2-3)Gal(b1-4)[Fuc(a1-3)]GlcNAc(b1-2)Man
Procedure, shortened: as §1

[8] = molecular target: Neu5Ac(a2-3)Gal(b1-4)[Fuc(a1-3)]GlcNAc(b1-3)Gal
Procedure, shortened: as §1

[9] = molecular target: Neu5Ac(a2-3)Gal(b1-4)[Fuc(a1-3)]GlcNAc(b1-3)Gal(b1-4)GlcNAc
Procedure, shortened: as §1

[10] = molecular target: Neu5Ac(a2-3)Gal(b1-4)[Fuc(a1-3)]GlcNAc(b1-3)Gal(b1-4)[Fuc(a1-3)]GlcNAc(b1-3)Gal(b1-4)[Fuc(a1-3)]GlcNAc
Procedure, shortened: as §1

[11] = molecular target: Neu5Ac(a2-3)Gal(b1-4)[Fuc(a1-3)]GlcNAc(b1-3)GalNAc
Procedure, shortened: as §1

[12] = molecular target: Neu5Ac(a2-3)Gal(b1-4)[Fuc(a1-3)]GlcNAc(b1-6)[Gal(b1-3)]GalNAc
Procedure, shortened: as §1

[13] = molecular target: Neu5Ac(a2-3)Gal(b1-4)[Fuc(a1-3)]GlcNAc(b1-6)[Neu5Ac(a2-3)Gal(b1-3)]GalNAc
Procedure, shortened: as §1

[14] = molecular target: Neu5Ac(a2-3)Gal(b1-4)[Fuc(a1-3)]GlcNAc6S
Procedure, shortened: as §1

[15] = molecular target: Neu5Ac(a2-3)Gal6S(b1-4)GlcNAc
Procedure, shortened: as §1

[16] = molecular target: Neu5Ac(a2-3)Gal6S(b1-4)[Fuc(a1-3)]GlcNAc
Procedure, shortened: as §1

Neu5Ac(a2-3)GalNAc = molecular target: Neu5Ac(a2-3)GalNAc
Procedure, shortened: as §1

[17] = molecular target: Neu5Ac(a2-3)GalNAc(b1-4)GlcNAc
Procedure, shortened: as §1

[18] = molecular target: Neu5Ac(a2-3)[GalNAc(b1-4)]Gal(b1-4)Glc
Procedure, shortened: as §1

[19] = molecular target: Neu5Ac(a2-3)[GalNAc(b1-4)]Gal(b1-4)GlcNAc
Procedure, shortened: as §1

[20] = molecular target: Neu5Ac(a2-3)[GalNAc(b1-4)]Gal(b1-4)GlcNAc(b1-3)GalNAc
Procedure, shortened: as §1

[21] = molecular target: Neu5Ac(a2-3)[Neu5Ac(a2-6)]GalNAc
Procedure, shortened: as §1

Neu5Ac(a2-6)Gal = molecular target: Neu5Ac(a2-6)Gal
Procedure, shortened: as §1

[22] = molecular target: Neu5Ac(a2-6)Gal(b1-3)GlcNAc(b1-3)[Gal(b1-4)GlcNAc(b1-6)]Gal(b1-4)Glc
Procedure, shortened: as §1

Neu5Ac(a2-6)Gal(b1-4)Glc = molecular target: Neu5Ac(a2-6)Gal(b1-4)Glc
Procedure, shortened: as §1

[23] = molecular target: Neu5Ac(a2-6)Gal(b1-4)GlcNAc
Procedure, shortened: as §1

[24] = molecular target: Neu5Ac(a2-6)Gal(b1-4)GlcNAc(b1-2)Man
Procedure, shortened: as §1

[25] = molecular target: Neu5Ac(a2-6)Gal(b1-4)GlcNAc(b1-2)Man(a1-3)Man(b1-4)GlcNAc(b1-4)GlcNAc
Procedure, shortened: as §1

[26] = molecular target: Neu5Ac(a2-6)Gal(b1-4)GlcNAc(b1-2)Man(a1-3)[Gal(b1-4)GlcNAc(b1-2)Man(a1-6)]Man(b1-4)GlcNAc(b1-4)GlcNAc
Procedure, shortened: as §1

[27] = molecular target: Neu5Ac(a2-6)Gal(b1-4)GlcNAc(b1-2)Man(a1-3)[GlcNAc(b1-4)][Neu5Ac(a2-6)Gal(b1-4)GlcNAc(b1-2)Man(a1-6)]Man(b1-4)GlcNAc(b1-4)GlcNAc
Procedure, shortened: as §1

B1: CcfD (Bacteroides vulgatus), A6KYX8 (protein)
chain: MKYKNYFKSIIYLALGAFTLGSCEDFLDRQEDEKLTFDKIWESRNTTQQYWLNAMSFLPNENGSLQGDTEPYLGASDECTIAYDRQYRWINFGTWNPSQVPYYKMDHYYKGIRECNIFLQNVYKCSDPLVTKDQLDEWYWQTRFARAYYYFLMMRDYGPVFLLGDDLLDFTASTEELYRPRNTWDQCVNYVVSEMTQCAESGVVLQQSDLPAAKWGLATVGTCHAVISRLLLYSARPLFNGNKLYSTVKNPDAPDFPELSGVKLFPELDNTKWQKAAEAAKKLIDNPCYELYRAGNDNPYEDYYGVTHETWNKELIWTDRYNGLFSWGVGTVPTGVAGTAYGAVGPTQALVDAYAMNTGWYPITGYEADGTPIVEPLSGYELASELEKSSWIYPSGGWSNKADFEIEAPNMYKDREPRFYVTVFFGGNQWLHGNSATSISFAKGGNGNKSHDYPKSGYLCNRFYDHKLNSSEGQWGNITFPVFRLGEIYLNFIEAVLECKKNGVALDPSYEALAMEKWADLRKRAGLDPITSIYGQVSTEELIQLCRKERQIELAFERHRYFDTRTWMIATQTDNGKMYGMNTSCPLDAGMKGTETPDGFWERTAFETRVFQNKHYLYPFSQRELDRNKLLTQNYGW
[1]
  glycan array binding signal (z-score): 0.689
[2]
  glycan array binding signal (z-score): 0.897
[3]
  glycan array binding signal (z-score): 1.43
[4]
  glycan array binding signal (z-score): 5
[5]
  glycan array binding signal (z-score): -0.495
[6]
  glycan array binding signal (z-score): -0.083
[7]
  glycan array binding signal (z-score): -0.739
[8]
  glycan array binding signal (z-score): -0.851
[9]
  glycan array binding signal (z-score): -0.637
[10]
  glycan array binding signal (z-score): -1.21
[11]
  glycan array binding signal (z-score): -0.078
[12]
  glycan array binding signal (z-score): -0.312
[13]
  glycan array binding signal (z-score): -0.053
[14]
  glycan array binding signal (z-score): 0.166
[15]
  glycan array binding signal (z-score): 0.226
[16]
  glycan array binding signal (z-score): -0.942
Neu5Ac(a2-3)GalNAc
  glycan array binding signal (z-score): -0.317
[17]
  glycan array binding signal (z-score): -0.307
[18]
  glycan array binding signal (z-score): 0.592
[19]
  glycan array binding signal (z-score): 1.18
[20]
  glycan array binding signal (z-score): 1.96
[21]
  glycan array binding signal (z-score): -0.571
Neu5Ac(a2-6)Gal
  glycan array binding signal (z-score): -0.683
[22]
  glycan array binding signal (z-score): -0.307
Neu5Ac(a2-6)Gal(b1-4)Glc
  glycan array binding signal (z-score): -0.592
[23]
  glycan array binding signal (z-score): -0.287
[24]
  glycan array binding signal (z-score): -0.327
[25]
  glycan array binding signal (z-score): 2.02
[26]
  glycan array binding signal (z-score): -0.708
[27]
  glycan array binding signal (z-score): -0.114
